Test results published in patent US6635631B2, “Iron compounds, compositions, methods of making the same and uses thereof” (Vitra Pharmaceuticals, Ltd., priority 1995, dated 2003).

Assay: Effect on iron absorption in vivo of maltol as a diet supplement (liver iron)
Set-up: species or system Male Wistar rats
Settings: rats fed maltol 50 mg/kg by gavage on alternate days, individual animals 1-6
Method: Male Wistar rats, housed in polyethylene cages, initially weighing 70-80 grams were given a normal powder diet and water ad libitum for two weeks prior to treatment with maltol by gavage. Provided the animal was showing normal growth, treatment by gavage with maltol at 50 mg/kg was commenced and continued on alternate days for a further two weeks. At the end of the experimental period the animals were sacrificed, the livers were excised, mass determined and the sub cellular fraction assayed for iron be electrothermal atomic absorption. […]. The iron content of the diet is 240 mg/kg of food and the daily consumption of the rats is approximately 20 g which contains 4.8 mg as iron. The content of maltol in the diet is approximately 10 mg which is a ratio of iron/maltol of 4.8/10.0 which is approximately a 1:1 molar ratio (actual 1:1 is 4.5/10/0).
The liver content and concentration of iron in the sub cellular fraction were compared with the control group fed the same diet over the month, but without maltol.

SMILES: Cc1occc(=O)c1O [Maltol, 3-hydroxy-2-methyl-4-pyrone]
- Body wt: 200 g (5×) and 220 g
- Liver wt: 12.1 g and 10.1 g (2×) and 9.9 g and 11.3 g (2×)

Where “and” joins values, the source holds several entries; their conditions need not be identical. Equal values may be shown once.
